Paper PMC9110474
These are yes or no findings as the source states them, for the method shown. Binding seen in cells or lysates may run through a third protein.

Protein sequences, listed by entry. Tags and fused reporters are not part of them.
UniProt P99999: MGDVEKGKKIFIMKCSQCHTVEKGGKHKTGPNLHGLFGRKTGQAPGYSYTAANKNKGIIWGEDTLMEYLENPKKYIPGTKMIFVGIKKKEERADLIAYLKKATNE
UniProt P21796: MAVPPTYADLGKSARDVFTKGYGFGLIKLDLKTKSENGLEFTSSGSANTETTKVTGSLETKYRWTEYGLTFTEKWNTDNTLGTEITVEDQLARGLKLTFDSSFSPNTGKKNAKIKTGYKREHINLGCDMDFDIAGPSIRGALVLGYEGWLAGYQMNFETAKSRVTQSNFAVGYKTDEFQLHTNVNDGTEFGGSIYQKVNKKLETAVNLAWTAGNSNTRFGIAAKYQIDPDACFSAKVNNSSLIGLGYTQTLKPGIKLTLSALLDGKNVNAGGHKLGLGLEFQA
UniProt Q9BXM7: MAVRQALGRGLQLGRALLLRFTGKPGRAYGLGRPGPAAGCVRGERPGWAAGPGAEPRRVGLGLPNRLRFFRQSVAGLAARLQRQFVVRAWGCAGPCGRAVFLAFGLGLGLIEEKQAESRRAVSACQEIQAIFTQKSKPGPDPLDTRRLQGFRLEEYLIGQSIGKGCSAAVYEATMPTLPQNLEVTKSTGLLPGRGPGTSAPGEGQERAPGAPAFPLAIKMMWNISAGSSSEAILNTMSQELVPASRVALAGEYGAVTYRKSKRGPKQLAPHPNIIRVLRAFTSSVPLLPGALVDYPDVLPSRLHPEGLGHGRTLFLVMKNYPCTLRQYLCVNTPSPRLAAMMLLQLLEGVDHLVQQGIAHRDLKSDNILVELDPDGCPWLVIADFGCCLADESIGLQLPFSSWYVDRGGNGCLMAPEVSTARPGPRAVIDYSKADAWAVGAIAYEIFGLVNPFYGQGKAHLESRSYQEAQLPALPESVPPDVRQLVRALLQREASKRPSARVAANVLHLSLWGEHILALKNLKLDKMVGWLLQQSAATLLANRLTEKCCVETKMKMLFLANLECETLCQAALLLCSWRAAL

Key:
[1] = target: Cytochrome C (endogenous) (human (endogenous in HeLa or U2OS mitochondria)) (UniProt P99999); experiment: co-IP; after import of radiolabeled PINK1 into depolarized (CCCP) mitochondria, digitonin lysate incubated 30 min at 4 °C with antibody (anti-TOM22; controls anti-Cytochrome C, anti-VDAC1) and protein A beads; supernatant on BN-PAGE, eluate on SDS-PAGE with autoradiography and western blot
[2] = target: VDAC1 (endogenous) (human (endogenous in HeLa or U2OS mitochondria)) (UniProt P21796); experiment: as above

In the case of “PINK1 (human, native, radiolabeled) (from UniProt Q9BXM7 1-581)”, the binding [1] is reported as “no binding” and the binding [2] is reported as “no binding”.
